# Measured values reported in PubChem BioAssay AID624291 (National Center for Advancing Translational Sciences (NCATS), 2012).
# Hit rate of the full screen: of about 350,000 compounds, about 220 (0.063%) were called active. Inconclusive results, whose numbers are uncertain, are shown with a selection of clear calls. Calls follow the shape of the dose curve; as a rule, active = well fitted activation curve with a large enough effect; inconclusive = small, poorly fitted or top-dose-only effect; inactive = no such curve, though single readings can be large or run the other way. Potencies of inconclusive entries are doubtful fits and often do not repeat.
# Assay: qHTS for Activators of Integrin-Mediated Alleviation for Muscular Dystrophy; also: nearly all actives have a fitted effect of over 60% in size;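 as to activation: 100% = response of the positive control SU9516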
# Conditions: alpha7betagal myoblasts, beta-gal FDG fluorescence, 48 h; activation: at 38.3 µM (top of the series)
# Method in brief: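 alpha7betagal+/- myoblasts (passage 13, 250/well) treated 48 h at 37C with compounds at 1:260 dilution of DMSO stock. Lysed, then beta-galactosidase activity read as FDG fluorescence (ex 480/em 540) after 30 min, with pre-read for autofluorescence.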
# Potency is read from the fitted curve at half-maximal effect.
Compound,activation,Potency
O=C(COC(=O)C1=COCCO1)Nc1ccc(F)cc1,inactive: 13.1%,–
O=C(O)CC1(c2ccccc2)C(=O)c2ccccc2C1=O,–,"inconclusive: 3.55 µM [activator, partial curve]"
COc1cc(OC)c(NC(=O)c2c(-c3ccccc3)noc2C)cc1Cl,–,"inconclusive: 0.316 µM [activator, full curve, poor fit]"
CC1CCN(CC(O)COc2ccc(F)cc2)CC1 (stereo not drawn),inactive: 24.8%,–
Cc1cc(C)c(S(=O)(=O)N2CCN(C(=O)CN3C(=O)NC4(CCCC4)C3=O)CC2)c(C)c1,–,"inconclusive: 10 µM [activator, partial curve, poor fit]"
COCC(=O)N/N=C/c1ccc(Sc2nc3ccccc3s2)o1,inactive: -6.52%,–
Cc1cc(C)c(C#N)c(N2CCOCC2)n1,inactive: -7.2%,–
N#CC1=C(N)Oc2cc(O)ccc2C1c1ccc(Br)s1 (stereo not drawn),–,"inconclusive: 5.01 µM [activator, single point]"
O=C(Nc1cscc1S(=O)(=O)c1ccc(Cl)cc1)c1ccccc1Cl,–,"inconclusive: 0.447 µM [activator, partial curve, poor fit]"
Cc1ccc(Cn2nnc3c(=O)[nH]c(C4CCCN(C(=O)c5ccco5)C4)nc32)cc1 (stereo not drawn),–,"inconclusive: 11.2 µM [activator, partial curve, poor fit]"
Cc1ccc(C(=O)NCc2cccnc2)o1,–,"inconclusive: 3.55 µM [activator, single point]"
O=C(CCCCN1CCCCC1)c1ccc2c(c1)Cc1ccccc1-2,inconclusive: -63.8% [activator],–
CC(NC(=S)N1CCN(c2ccccc2)CC1)c1ccccc1 (stereo not drawn),–,"inconclusive: 5.01 µM [activator, single point]"
O=c1cc(CSc2ccccc2)[nH]c2ccccc12,–,"inconclusive: 3.98 µM [activator, full curve, poor fit]"
O=C(CCNC(=O)C1CCN(S(=O)(=O)c2ccc(F)cc2)CC1)NCc1cccc(Cl)c1,–,"inconclusive: 14.1 µM [activator, single point]"
Cc1ccnc(NS(=O)(=O)c2ccc(N3C(=O)c4c(Cl)c(Cl)c(Cl)c(Cl)c4C3=O)cc2)n1,–,"inconclusive: 28.2 µM [activator, single point]"
O=c1cnnc(N/N=C/c2cccs2)[nH]1,–,"inconclusive: 28.2 µM [activator, single point]"
Cc1cc(C)n(CC(=O)N2c3ccccc3Sc3ccc(C(F)(F)F)cc32)n1,–,"inconclusive: 5.01 µM [activator, single point]"
COc1cc(-c2nc3ccccn3c2N)ccc1O,–,"inconclusive: 5.01 µM [activator, single point]"
CN1C(=O)[C@H]2[C@@H](c3ccc(C(F)(F)F)cc3)N[C@]3(CCCN(Cc4ccc(Br)cc4)C3=O)[C@H]2C1=O,inactive: -26.5%,–
O=C(Oc1oc(-c2ccco2)nc1C=Nc1ccccc1)c1ccco1,inactive: -0.352%,–
CN(C)/C=N/c1nc(Sc2ccc(C(F)(F)F)cc2[N+](=O)[O-])n[nH]1,–,"inconclusive: 20 µM [activator, partial curve, poor fit]"
COc1cccc(NC(=O)Nc2ccc3c(c2)CCC3)c1,–,"inconclusive: 12.6 µM [activator, single point]"
CCCC1NC(=O)c2cccnc2-n2c1nc1ccc(Br)cc1c2=O (stereo not drawn),inactive: -8.14%,–
COc1cc(NS(=O)(=O)c2ccc(NC(=O)C3CCCO3)cc2)nc(OC)n1 (stereo not drawn),inactive: 2.72%,–

# Laid out differently: results already given
Compound | activation | Potency
COc1cc(-c2nc3ccccn3c2N)ccc1O | – | inconclusive: 5.01 µM [activator, single point]
CN1C(=O)[C@H]2[C@@H](c3ccc(C(F)(F)F)cc3)N[C@]3(CCCN(Cc4ccc(Br)cc4)C3=O)[C@H]2C1=O | inactive: -26.5% | –

# Next part

Compound,activation,Potency
COc1ccc(NC(=O)n2ncc3cc(Cl)ccc32)cc1OC,–,"inconclusive: 5.01 µM [activator, single point]"
CN1C(=O)C(O)(CC(=O)c2cccc(-n3cccc3)c2)c2ccccc21 (stereo not drawn),inactive: -12.3%,–
COc1ccc(Cn2c(C)nnc2-c2cnn(C)c2N)cc1,–,"inconclusive: 5.01 µM [activator, single point]"
Nc1c(-c2ccc3c(c2)OCCO3)oc2ccccc2c1=O,–,"inconclusive: 14.1 µM [activator, single point]"
Nc1c2c(nc3cccc(Cl)c13)N(c1ccccc1)CC2,–,"inconclusive: 2.24 µM [activator, single point]"
COc1ccccc1OCC(=O)Nc1ccc(-c2nnc(-c3ccco3)o2)cc1,inactive: 5.24%,–
Cc1ccccc1OCC(=O)Nc1ccccc1N1CCCCC1,inactive: 0.93%,–
CSc1ncccc1C(=O)N1CCCC(N2CCN(c3ccccc3F)CC2)C1 (stereo not drawn),–,"inconclusive: 1.78 µM [activator, partial curve, poor fit]"
O=C(CCNS(=O)(=O)c1ccccc1C(F)(F)F)Nc1ccncc1,–,"inconclusive: 12.6 µM [activator, single point]"
Cc1ccc(-c2nc(NC(=O)c3nn(C)cc3[N+](=O)[O-])sc2C)cc1,–,"inconclusive: 28.2 µM [activator, single point]"
O=C(Nc1nc2ccccc2s1)C1CC(=O)N(c2ccccc2)C1 (stereo not drawn),–,"inconclusive: 5.01 µM [activator, single point]"
COc1cc(CCC(=O)OCC(=O)c2ccc[nH]2)cc(OC)c1OC,–,"inconclusive: 1.41 µM [activator, partial curve, poor fit]"
CCOc1cc(S(=O)(=O)NCCc2ccc(OC)c(OC)c2)c(OCC)cc1-n1cnnn1,inactive: -0.175%,–
C[C@]12c3[nH]c4ccccc4c3CCN1C(=O)C(CC(=O)NCCCn1ccnc1)C[C@@H]2C(=O)N1CCCCC1 (stereo partly drawn),inactive: 13.9%,–
O=C1C(NS(=O)(=O)c2cccs2)=C(N2CCOCC2)C(=O)c2ccccc21,inactive: -4.32%,–
O=C(CN(C1CCCCC1)S(=O)(=O)c1ccc(F)cc1)NCC1CCCO1 (stereo not drawn),inactive: -74.2%,–
Cc1nn(-c2nc3ccccc3s2)c(C)c1Oc1ccccc1O,–,"inconclusive: 5.62 µM [activator, partial curve, poor fit]"
O=C(c1ccc(Br)cc1)N1CCC(C(=O)N2CCN(Cc3ccccc3)CC2)CC1,inactive: -6.46%,–
O=C(CN1CCN(S(=O)(=O)c2ccc(F)c(Cl)c2)CC1)N1CCNC1=O,–,"inconclusive: 0.447 µM [activator, full curve, poor fit]"
CN(C)n1cccc1/C=C(\C#N)S(=O)(=O)c1ccc(Cl)cc1,–,"inconclusive: 7.94 µM [activator, partial curve, poor fit]"
COc1ccc(-c2csc3ncnc(N4CCN(c5ccccc5[N+](=O)[O-])CC4)c23)cc1,–,active: 10 µM
c1ccc(-c2nnsc2-c2ccccc2)cc1,–,"inconclusive: 10 µM [activator, single point]"
Cc1ccc(-c2ccc3c(c2)O[C@H](CN(C)Cc2cncnc2)[C@@H](C)CN([C@H](C)CO)S3(=O)=O)cc1,inactive: -17.8%,–
CCCCCCC(C)NC(=S)Nc1cc(S(=O)(=O)N(C)C)ccc1C (stereo not drawn),inactive: -38.5%,–
CSCCC(NC(=O)C1CCC(C)CC1)C(=O)OCC(=O)c1ccc(Cl)cc1 (stereo not drawn),inactive: 7.9%,–

Compound,activation,Potency
CC(C)CCN1CCN(Cc2ccsc2)CC1CCO (stereo not drawn),inactive: -13.9%,–
CCN1CCN(C(=O)c2nn(-c3ccc(OC)cc3)c(=O)c3c2c2ccccc2n3C)CC1,–,"inconclusive: 28.2 µM [activator, single point]"
O=C(OCc1ccccc1)N1CCC2CC1c1cc(NCCc3ccccc3)ccc12 (stereo not drawn),inactive: 2.12%,–
CCN(CC)c1ccc(C(=C2C=CC(=[N+](CC)CC)C=C2)c2ccc(N(CC)CC)cc2)cc1,inconclusive: -75% [activator],–
CC(=O)Nc1ccc(C2NC(=O)CCC2[N+](=O)[O-])cc1 (stereo not drawn),–,"inconclusive: 5.01 µM [activator, single point]"
CCOc1ccc(C(C)=O)cc1CN1c2ccc(S(N)(=O)=O)cc2CC1C (stereo not drawn),–,"inconclusive: 10 µM [activator, partial curve, poor fit]"
Cc1cc(=O)n2[nH]c(-c3ccco3)nc2n1,inactive: 1.98%,–
CC(=O)N1CCN(CC(O)COc2ccc(Br)cc2)CC1 (stereo not drawn),–,"inconclusive: 28.2 µM [activator, single point]"
Cc1cccc(-c2nc(CSCC(=O)NCCCN3CCOCC3)c(C)o2)c1,inactive: -14.8%,–
COc1ccc(NC(=O)c2ccc(Cc3ccc(C)cc3)o2)cc1,inactive: 22.2%,–
Cc1ccc(NC(=O)N2CCCC2)cc1Cl,inactive: 16.8%,–
Cc1nn(C(C)C(=O)NCc2ccco2)c(=O)c2nn(-c3ccccc3)c(C)c12 (stereo not drawn),–,"inconclusive: 20 µM [activator, single point]"
O=C(Nc1ccccc1-c1nc2ccccc2s1)c1cccnc1,–,"inconclusive: 28.2 µM [activator, single point]"
Cc1ccc(Nc2cc(C)nc(NCc3ccccc3)n2)cc1,inactive: -74.9%,–
Cc1cc(C)cc(C(=O)NC(=S)Nc2cccnc2)c1,–,"inconclusive: 5.01 µM [activator, single point]"
Cc1ccccc1CS(=O)(=O)CCC(=O)NCCCN1CCN(c2ccccc2F)CC1,inactive: -0.542%,–
CC1CN(Cc2nnc(-c3ccccc3)o2)CC(C)O1 (stereo not drawn),–,"inconclusive: 28.2 µM [activator, single point]"
O=C(N/N=C/c1c(O)ccc2ccccc12)c1[nH]ncc1Br,–,"inconclusive: 12.6 µM [activator, single point]"
COc1cc2nc(C3CCC3)n(N)c(=O)c2cc1OC,inconclusive: 23.6% [activator],–
CCOc1ccc(S(=O)(=O)N(C)CCO)cc1-c1nc2c(C(C)(C)C)nn(C)c2c(=O)[nH]1,inactive: -23.1%,–
CN(Cc1cccnc1)Cc1cn[nH]c1-c1ccc(-c2ccccc2)cc1,inactive: -18.2%,–
Cc1ccc(C)c(NS(=O)(=O)c2csc(C(N)=O)c2)c1,–,"inconclusive: 0.891 µM [activator, full curve, poor fit]"
Cc1cccc(C)c1OCC(O)CN1CCN(c2ccccn2)CC1 (stereo not drawn),–,"inconclusive: 5.01 µM [activator, single point]"
